Results on 1 sequence are retold here after publication PMC4274154, “DEAF1 Binds Unmethylated and Variably Spaced CpG Dinucleotide Motifs”.

The comparison behind a weaker result is the experiment's own reference, which may not be listed here. Tags and fusion partners may be left off the protein sequences shown.

For the data set, the target named is T1, DEAF1-FLAG (UniProt O75398).
T1 sequence (looked up): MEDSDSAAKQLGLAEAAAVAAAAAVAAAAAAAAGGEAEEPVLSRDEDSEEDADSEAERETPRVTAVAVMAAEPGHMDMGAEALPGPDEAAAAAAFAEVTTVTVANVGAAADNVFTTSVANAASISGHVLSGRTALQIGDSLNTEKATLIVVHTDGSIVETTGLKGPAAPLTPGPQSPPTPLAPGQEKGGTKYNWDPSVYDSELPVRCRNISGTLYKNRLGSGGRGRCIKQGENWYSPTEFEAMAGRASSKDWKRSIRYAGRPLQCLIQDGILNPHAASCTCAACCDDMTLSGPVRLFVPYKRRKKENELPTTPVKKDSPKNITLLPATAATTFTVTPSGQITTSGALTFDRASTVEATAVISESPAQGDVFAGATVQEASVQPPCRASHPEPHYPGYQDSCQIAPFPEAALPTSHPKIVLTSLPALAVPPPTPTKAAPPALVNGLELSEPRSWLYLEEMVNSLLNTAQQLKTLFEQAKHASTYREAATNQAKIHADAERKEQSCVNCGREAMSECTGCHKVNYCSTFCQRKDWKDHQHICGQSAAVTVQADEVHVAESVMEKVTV
Briefly: EMSA. Conditions: probe alone, greatly reduced relative to N52-69 and 6con; EMSA: 200 ng DEAF1-FLAG, 30 min at room temperature, 1x EMSA binding buffer (composition and pH not given), 1 ug dA:dT, 5% native polyacrylamide gel; recombinant protein; residues 1-565; protein details: FLAG; label: IR700 at 5' ends.

With “AGAGTCTCTGAGGGTTTTCCTCGTGCCTG (double strand) [Htr1a mouse#1]”, the binding result is “binds more weakly”.
